Consider 67 compounds from PubChem BioAssay AID662 (National Center for Advancing Translational Sciences (NCATS), 2007).

The other results are listed elsewhere or left out. The main result of the screen is listed elsewhere. These columns were measured beside it and carry no call. The list favours compounds with an active or inconclusive main result. The note in brackets gives the kind of curve behind each potency; many fits are weak.

The test is described as follows: Cell signaling CRE-BLA (Fsk stim). The note with it: CHO CRE-bla reporter (cAMP response element driving beta-lactamase), forskolin EC10, beta-lactamase ratio; measured here: 460 nm blue channel. A digest of the protocol: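 AC50 values, positive or negative, reflect shifts in EC10 NKH 477-induced CRE-bla reporter activity in CHO cells. Incubation lasted 3 h at 37 °C before CCF4 substrate (2 h, room temperature) and ratiometric 460/530 nm reading.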
`CC(C)=CCCC(C)CN1CCC(O)CC1` (configuration not stated): the AC50 (commonly the concentration at which the activity in the assay is half-maximal) was 25.1 µM [rising, single point].
Turning to `CCC1CCCCN1C(=O)Cn1c(=O)oc2ccccc21` (configuration not stated), the AC50 is 5.01 µM [falling, partial curve].
In the case of `CCOC(=O)C(NC(=O)c1ccccc1)(Nc1cc(C)on1)C(F)(F)F` (configuration not stated), the AC50 was 0.398 µM [falling, partial curve].
With `CCN(C(C)=O)c1nnc(CSc2nc3ccccc3s2)s1`, the AC50 was 25.1 µM [rising, single point].
Take `CCn1c(N2CCN(CC(=O)c3c(C)n(C)c4ccccc34)CC2)nc2c1c(=O)[nH]c(=O)n2C`: the AC50 was 12.6 µM [rising, single point].
Turning to `Cc1cccc(CNc2nc(-c3ccc(C(=O)N(C)C)cc3)nc3ccccc23)c1`, the AC50 is 1.58 µM [rising, partial curve].
On to `CCCCn1c(CN(Cc2ccccc2)Cc2ccccc2)nc2c1c(=O)n(C)c(=O)n2C`, for which the AC50 is 0.126 µM [rising, single point].
The value for `COc1ccc(N=Cc2c(O)[nH]c3ccccc23)cc1OC` was 6.31 µM [rising, partial curve]; that for `CC[C@@]1(O)C(=O)OCc2c1cc1n(c2=O)Cc2cc3c(CN(C)C)c(O)ccc3nc2-1` was 2 µM [rising, partial curve]; that for `COC(=O)c1ccccc1NC(=O)c1cccc(NC(=O)c2ccc(Br)o2)c1C` was 12.6 µM [rising, partial curve].
With `CCC(Sc1nncn1C)C(=O)Nc1nnc(-c2ccc(Cl)cc2)s1` (configuration not stated), the AC50 was 10 µM [rising, single point].
For the compound `COc1cccc(-c2cc3nc4c(c(N5CCC6(CC5)OCCO6)n3n2)CCCC4)c1`, the AC50 was 5.01 µM [rising, single point].
Turning to `O=C(CSc1nc2ccccc2c2ccccc12)c1ccccc1`, the AC50 was 5.01 µM [rising, single point].
Take `COc1cc(NC(=O)c2cc3ccccc3o2)c(OC)cc1Cl`: the AC50 is 10 µM [rising, partial curve].
As to `C=CCc1c(C)nc(SCc2nc3ccccc3c(=O)[nH]2)[nH]c1=O`, the AC50 was 10 µM [rising, partial curve].
With `CC(=O)Nc1cc(OC(=O)c2ccco2)cc(OC(=O)c2ccco2)c1`, the AC50 was 10 µM [falling, partial curve].
Regarding `CCC(C)NC(=O)COc1ccc(S(=O)(=O)N2CCOCC2)cc1` (configuration not stated), the AC50 is 3.98 µM [falling, single point].
Consider `Cc1ccc(C2C3=C(CCCC3=O)Nc3nc(SCC(=O)NCc4ccco4)[nH]c(=O)c32)cc1` (configuration not stated), for which the AC50 was 0.2 µM [falling, full curve].
Regarding `Cc1ccccc1CS(=O)(=O)CCC(=O)N1CCN(c2ccc(N3CCOCC3)nn2)CC1`, the AC50 was 6.31 µM [rising, partial curve, poor fit].
For the compound `Cc1ccc(-n2ncc3c(NCc4ccco4)ncnc32)c(C)c1`, the AC50 was 25.1 µM [rising, single point].
Take `Cn1c(C(=O)N2CCN(C(=O)c3ccco3)CC2)cc2c(=O)n(C)c3ccccc3c21`: the AC50 is 2.51 µM [rising, full curve].
In the case of `Cc1cc2n(n1)C(c1ccc3c(c1)OCO3)Nc1ccccc1-2` (configuration not stated), the AC50 was 15.8 µM [rising, partial curve].
Take `COc1ccc2nc3cc(Cl)ccc3c(Nc3ccc(O)c(CN4CCN(C)CC4)c3)c2c1`: the AC50 was 2.51 µM [rising, partial curve].
With `O=C(CCc1nc2ccccc2c(=O)[nH]1)NC1CCN(Cc2ccccc2)CC1`, the AC50 was 5.01 µM [falling, single point].
For `CCOC(=O)c1ccc(NS(=O)(=O)c2cc(-c3nnnn3C(C)C)ccc2OC)cc1`, the AC50 was 25.1 µM [rising, single point].
Take `COC(=O)c1c(C#N)c(N)nc2c1CCCC2`: the AC50 is 12.6 µM [rising, partial curve].
Consider `Cc1cc(C)n(-c2nc3ccccc3nc2Nc2ccc3[nH]c(=O)[nH]c3c2)n1`, for which the AC50 is 12.6 µM [rising, partial curve, poor fit].
With `c1ccc(CCc2nc(-c3ccncc3)no2)cc1`, the AC50 is 0.631 µM [falling, partial curve].
`Cc1ccc(NCc2nnc(SCC(=O)Nc3ccccc3)n2CC2CCCO2)c(C)c1` (configuration not stated): the AC50 was 25.1 µM [falling, single point].
As for `CC(C(=O)NCCCN1CCOCC1)n1cccc1C(=O)c1ccccc1` (configuration not stated), the AC50 is 0.02 µM [falling, full curve, poor fit].
Then `COc1cccc(Nc2ncc3nc(C)c(=O)n(CCC#N)c3n2)c1`, with 7.94 µM [rising, partial curve].
Regarding `COc1ccc(CCNC(=O)c2c[nH]c3ccccc3c2=O)cc1OC`, the AC50 is 10 µM [rising, partial curve].
Regarding `Cc1nc(NCCCn2ccnc2)c2ccccc2n1`, the AC50 was 12.6 µM [falling, single point].
Then `COc1ccccc1N=c1oc2cc(O)ccc2cc1C(=O)NCC1CCCO1` (configuration not stated), with 10 µM [rising, partial curve].
Regarding `COC(=O)C1CCN(C(=O)NC2CCCCC2)CC1`, the AC50 is 0.0316 µM [falling, full curve, poor fit].
`CCOc1ccccc1OCC(=O)O`: the AC50 is 3.98 µM [falling, single point].
In the case of `CCS(=O)(=O)NCC(c1cccnc1)N1CCN(c2ccccc2F)CC1` (configuration not stated), the AC50 is 0.316 µM [falling, partial curve].
In the case of `O=P(O)(O)CCP(=O)(c1ccccc1)c1ccccc1`, the AC50 is 10 µM [rising, partial curve, poor fit].
As to `COc1cc2c(=O)n(Cc3ccco3)c(=O)n(CC(=O)c3ccc(Br)cc3)c2cc1OC`, the AC50 is 2.51 µM [rising, single point].
Regarding `CC1(C(=O)NC2CCCCCCC2)CCC(=O)N1Cc1cccnc1` (configuration not stated), the AC50 was 25.1 µM [rising, single point].
Regarding `COc1cccc(Nc2ncc3nc(C)c(=O)n(Cc4cccs4)c3n2)c1`, the AC50 was 10 µM [rising, partial curve].
In the case of `COc1ccc(OC)c(C2=NOC(C(=O)NCc3ccccn3)C2)c1` (configuration not stated), the AC50 was 0.0398 µM [falling, full curve, poor fit].
Take `COC(=O)C1=C(N)Oc2cc(C)n(Cc3ccncc3)c(=O)c2C1c1cccnc1` (configuration not stated): the AC50 is 3.98 µM [falling, single point].
Turning to `Cc1cccc(Cn2c(N3CCCCC3C)nc3c2c(=O)[nH]c(=O)n3C)c1` (configuration not stated), the AC50 was 2.51 µM [rising, single point].
Regarding `COc1ccc(-c2nc3cnc(Nc4ccccc4)nc3n(C[C@H]3CCCO3)c2=O)cc1`, the AC50 is 2.51 µM [rising, full curve].
`CN(C)c1ncnc2ccc(-c3cccc(NS(C)(=O)=O)c3)cc12`: the AC50 was 6.31 µM [rising, partial curve].
The value for `CCC(=O)N1CCN(c2ccccc2NC(=O)COc2ccccc2Cl)CC1` was 1 µM [rising, full curve, poor fit].
The value for `Cc1cnc(CNc2cc(-c3cccnc3)ncn2)cn1` was 12.6 µM [rising, single point]; that for `COC(=O)c1c(NC(=O)CSc2nnc(-c3cccnc3)n2Cc2ccco2)sc(C)c1C` was 12.6 µM [rising, partial curve].
In the case of `Cc1csc(SCC(=O)Nc2ccccn2)n1`, the AC50 is 15.8 µM [falling, single point].
For `CCCCCCNC(=O)c1c(N)n(/N=C/c2ccco2)c2nc3ccccc3nc12`, the AC50 is 15.8 µM [rising, partial curve].
On to `O=C(c1ccco1)N1CCN(S(=O)(=O)c2ccc3c(c2)CCN3C(=O)C2CC2)CC1`, for which the AC50 is 12.6 µM [rising, single point].
As for `N#Cc1ccccc1-n1c(N)c(C(=O)N2CCCC2)sc1=S`, the AC50 is 0.316 µM [falling, partial curve].
Then `COc1ccc(CCCc2nnc(SCC(=O)Nc3cc(C)c(C)cc3Br)o2)cc1`, with 2 µM [rising, partial curve]; and `COc1ccc(C2=CC(c3c(C)nn(-c4ccccc4)c3Cl)n3nnnc3N2)cc1OC` (configuration not stated), with 10 µM [rising, partial curve]; and `CC(C)COc1cc(=O)[nH]c(SCC(C)C)n1`, with 10 µM [rising, partial curve].
Turning to `O=c1c(-c2ccc(F)cc2)nc2cnc(N3CCNCC3)nc2n1C1CC1`, the AC50 is 12.6 µM [rising, partial curve].
Then `CCOC(=O)N1CCN(C(=O)CCc2c(C)nc3c(c(C)nn3-c3ccc(C)c(C)c3)c2C)CC1`, with 0.0126 µM [falling, full curve, poor fit]; and `COc1ccc(N2CCN(CC(=O)Nc3nc4c(s3)CC(C)CC4)CC2)cc1` (configuration not stated), with 0.126 µM [falling, single point].
Regarding `CCCc1nc2oc(C(=O)OCC)c(N)c2c2c1COC(C)(C)C2`, the AC50 is 1.26 µM [rising, full curve].
On to `CCOC(=O)N1CCC(Nc2c(NCCN3CCN(Cc4ccccc4)CC3)c(=O)c2=O)CC1`, for which the half-maximal activity concentration (AC50) was 31.6 µM [falling, partial curve].
With `O=C(Nc1ccc2c(c1)OCO2)c1cnn2cccnc12`, the AC50 is 25.1 µM [rising, single point].
For `COc1ccc(C2c3c(oc4c(C)cc(C)cc4c3=O)C(=O)N2Cc2cccnc2)cc1OC` (configuration not stated), the AC50 is 3.16 µM [rising, single point].
Take `Cc1ccc2c(c1)c(C)c(C)n2CC(O)Cn1nc(C)c(Br)c1C` (configuration not stated): the AC50 is 2.51 µM [rising, full curve].
Turning to `Cc1cc(O)c(C=Nc2cccc(Cl)c2)c(=O)o1`, the AC50 is 12.6 µM [rising, single point].
As to `COc1ccc2[nH]cc(CCNc3ncnc4ccc(-c5c(C)noc5C)cc34)c2c1`, the AC50 is 3.16 µM [rising, full curve].
Then `O=C(CN1CCN(CCC(=O)Nc2ccccc2F)CC1)Nc1ccc(Cl)cc1`, with 0.0794 µM [falling, full curve].
